Measured values taken from patent US20100130432A1, “Non-Natural Amino Acids and Neurotensin Analogues Thereof” (priority 2005, published 2010).
For at least one compound, name, drawing or mass did not settle the structure.

The chains behind the UniProt entries cited, without tags or fusion partners.
UniProt P30989, whole entry, species assumed: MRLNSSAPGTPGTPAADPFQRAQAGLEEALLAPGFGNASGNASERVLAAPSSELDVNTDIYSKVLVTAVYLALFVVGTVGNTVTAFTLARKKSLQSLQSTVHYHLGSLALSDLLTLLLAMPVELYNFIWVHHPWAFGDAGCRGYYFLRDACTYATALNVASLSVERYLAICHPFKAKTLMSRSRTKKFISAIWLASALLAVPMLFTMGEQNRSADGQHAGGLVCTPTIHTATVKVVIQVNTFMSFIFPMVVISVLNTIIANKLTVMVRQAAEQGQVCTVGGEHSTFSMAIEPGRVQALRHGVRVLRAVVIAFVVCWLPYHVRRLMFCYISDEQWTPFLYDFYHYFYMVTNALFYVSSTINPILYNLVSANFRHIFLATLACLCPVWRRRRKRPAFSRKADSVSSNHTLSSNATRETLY
UniProt O95665, whole entry, species assumed: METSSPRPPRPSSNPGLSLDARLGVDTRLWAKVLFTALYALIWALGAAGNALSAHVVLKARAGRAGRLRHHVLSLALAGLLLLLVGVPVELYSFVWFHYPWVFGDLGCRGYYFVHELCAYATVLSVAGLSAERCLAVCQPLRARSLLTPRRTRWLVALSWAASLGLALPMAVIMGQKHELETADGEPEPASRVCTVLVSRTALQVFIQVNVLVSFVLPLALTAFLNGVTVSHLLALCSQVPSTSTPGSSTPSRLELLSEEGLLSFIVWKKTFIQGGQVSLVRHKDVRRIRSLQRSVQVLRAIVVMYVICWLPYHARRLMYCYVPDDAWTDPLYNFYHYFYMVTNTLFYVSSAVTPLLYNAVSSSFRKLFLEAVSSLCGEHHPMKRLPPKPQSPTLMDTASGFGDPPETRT

Experiments:
[1] = target: NTR-1 (Homo sapiens, UniProt P30989); assay: Competitive NTR binding versus radiolabeled NT[8-13]; conditions: read-out: NTR-1; Table 12
[2] = target: NTR-2 (Homo sapiens, UniProt O95665); assay: as above; conditions: read-out: NTR-2; Table 12

| SMILES | IC50 [1] | IC50 [2] |
| --- | --- | --- |
| CC[C@H](C)[C@H](NC(=O)[C@H](Cc1ccc(O)cc1)NC(=O)[C@@H]1CCCN1C(=O)[C@H](CCCNC(=N)N)NC(=O)[C@H](CCCNC(=N)NC)N=[N+]=[N-])C(=O)N[C@@H](CC(C)C)C(=O)O [ABS16, X-Arg-Pro-Tyr-isoleu-Leu] | 300 ± 50 pM |  |
| CC[C@H](C)[C@H](NC(=O)[C@H](Cc1ccc(O)cc1)NC(=O)[C@@H]1CCCN1C(=O)[C@H](CCCNC(=N)N)NC(=O)[C@H](CCCNC(=N)N)N=[N+]=[N-])C(=O)N[C@@H](CC(C)C)C(=O)O [ABS15, X-Arg-Pro-Tyr-isoleu-Leu] |  | 900 ± 200 pM |
| CCNC(=N)NCCC[C@H](N=[N+]=[N-])C(=O)N[C@@H](CCCNC(=N)N)C(=O)N1CCC[C@H]1C(=O)N[C@@H](Cc1ccc(O)cc1)C(=O)N[C@H](C(=O)N[C@@H](CC(C)C)C(=O)O)[C@@H](C)CC [ABS17, X-Arg-Pro-Tyr-isoleu-Leu] | 250 ± 70 pM |  |
